From patent US20180208645A1
Results are given in words; binding and its absence hold for the method and conditions named. Some binding calls cover weakened binding; strength is not graded here.

Sequences of proteins named here, by UniProt entry; tags and fusion partners are left off. A change or cut given only in a name is not applied to a line headed by its entry. A line that says so, or that is headed by a name, gives the form on record, which may keep a tag or linker.
recombinant human mesothelin (Q13421, form named): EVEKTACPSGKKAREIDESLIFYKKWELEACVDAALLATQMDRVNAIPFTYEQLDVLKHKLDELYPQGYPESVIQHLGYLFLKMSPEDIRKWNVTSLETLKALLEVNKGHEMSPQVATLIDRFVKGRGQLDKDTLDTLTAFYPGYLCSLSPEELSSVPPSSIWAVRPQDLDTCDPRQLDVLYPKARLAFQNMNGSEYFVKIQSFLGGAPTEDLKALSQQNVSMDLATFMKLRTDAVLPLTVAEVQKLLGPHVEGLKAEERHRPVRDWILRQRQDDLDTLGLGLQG

B1: human anti-mesothelin ScFv binder MH1P (scFv, not shown: small tags and cut ends)
scFv: QVQLQQSGPGLVKPSRTLSLTCAISGDSVSSNSAAWNWIRQSPSRGLEWLGRTYYRSKWYNDYAVSVKSRITINPDTSKNQFSLQLNSVTPEDTAVYYCARGKGGKKGGAFDIWGQGTMVTVSSGGGGSGGGGSGGGGSSSELTQDPAVSVALGQTVRITCQGDSLRSYYASWYQQKPGQAPVLVIYGKNNRPSGIPDRFSGSSSGNTASLTITGAQAEDEAEYYCSSSTRNHVFFGRGTKVTVLG
B2: human anti-mesothelin ScFv binder MH2P (scFv, not shown: small tags and cut ends)
scFv: EVQLVQSGGGLVQPGRSQRLSCAASGFTFDDYAMHWVRQAPGKGLEWVSGISWNSGSIGYADSVKGRFTISRDNAKNSLYLQMNSLRAEDTALYYCAKDISSSAGNAFDIWGQGTMVTVSSGGGGSGGGGSGGGGSSSELTQDPAVSVALGQTVRITCQGDRLRSYYASWYQQKPGQAPVLVIYGKNNRPSGIPDRFSGSDSGDTASLTITGAQAEDEADYYCHSRDSGGNHVVFGGGTQLTVLG
B3: human anti-mesothelin ScFv binder M1-4S (scFv, not shown: small tags and cut ends)
scFv: EVQLVQSGGGLVQPGGSLRLSCAASGFTFDDYAMHWVRQAPGKGLEWVSGISWNSGSIGYADSVKGRFTISRDNAKNSLYLQMNSLRAEDTALYYCAKDLSSVAGPFNYWGQGTLVTVSSGGGGSGGGGSGGGGSSSELTQDPAVSVALGQTVRITCQGDSLRSYYASWYQQKPGQAPVLVIYGKNNRPSGIPDRFSGSSSGNTASLTITGAQAEDEADYYCNSRDSSGNHLVFGGGTQLTVLG

biological target: recombinant human mesothelin (human) (UniProt Q13421); experiment: ELISA, coated recombinant human mesothelin, purified His/Flag scFv, anti-Flag-HRP detection

Question: B1 was tested. Which binding did it give?
Answer: The binding was “binds”.

Question: For B2, which binding is on record?
Answer: Its binding is “binds”.

Question: Which binding does the source give for B3 here?
Answer: The binding was “binds”.
